The source of these data is PubChem BioAssay AID1347423 (Functional Genomics Laboratory (NCATS/FGL), 2020).

In all, about 52,000 sequences went through this assay and about 210 (0.4%) were called active.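 Rule for the calls: active = gene whose silencing raises cell survival under the drug, median off-target-corrected z-score across its silencing RNAs 2 or more; inactive = the rest.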 This is one part of the list.

This assay in a line: Resistance to Poly (ADP-Ribose) Polymerase inhibitor: Gene Identification via Genome-wide siRNA Screen. To be noted: mouse BRCA2 R2336H ES cells, olaparib, CellTiter-Glo viability; active compounds read high. A digest of the protocol: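 Mouse BRCA2 R2336H ES cells were reverse-transfected with siRNA (20 nM final), treated at 48 h with 500 nM olaparib, and read by CellTiter-Glo after 72 h. Scores: MAD-based z per siRNA, median per gene, seed off-target correction.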
(Cellular ATP, detected with luciferase, serves as a proxy for viable cell number.)
As to “CGGCUACCAAUCCAAGACATT against F830029L24Rik”, the z-score is inactive: 1.86.
On to GGAAGAGAAAUUCUUCCUCTT against Alg5, for which the z-score is inactive: 0.602.
Regarding GGAAAGCCGUAUAGUUGUATT against LOC244556, the z-score is inactive: 0.176.
In the case of GCGCAAAUCUCUCUGUUCUTT against Krt1-24, the z-score is inactive: -2.13.
The same measure for “GGUUUCUUCCACAGGACCUTT against 1210002B07Rik”: inactive: -1.08.
In the case of GGAAGCAUUUCUUAAUUCATT against Ncoa4, the z-score was inactive: 0.162.
On to GGAGUACGUUGACAUCAUCTT against Timp4, for which the z-score was inactive: -1.01.
“GGAGCAUUCUUUGGUGAAGTT against 1700024B05Rik”: the z-score is inactive: -1.42.
As to “GCGUGAACCGUUUGAUGAGTT against 9030612E09Rik”, the z-score is inactive: 0.991.
On to CGGAUUCCGCUGGAACUAUTT against Enpp7, for which the z-score was inactive: 1.25.
On to GGAAAGGAGAGGUGUGUUCTT against Asb7, for which the z-score is inactive: 1.44.
As to CGCUUCUAUAAACCUGACUTT against Mrpl3, the z-score was inactive: 0.168.
The result for GGCCCAGCAAAAAAAGAAGTT against Usp46 reads inactive: -0.453.
Take “GGCAAAAUUAAAGCACAGUTT against 2810055F11Rik”: the z-score is inactive: 0.334.
Turning to GGUUCUUAACCUCAGCAGUTT against Omg, the z-score is inactive: 0.118.
For GGUGAAGUACUUUUCGUUCTT against Slc1a3, the z-score was inactive: -0.0695.
Regarding GGUCCUGGAGGCUUAUAAUTT against Sema3a, the z-score is inactive: -0.851.
Take GCUACUCUCUAUUGGUUUUTT against Gpr45: the z-score is inactive: -0.405.
The result for GCGGUGUCCUAAAAUGCACTT against Nkx1-2 reads inactive: 0.554; that for GGCUCCAAACAGAAUCUUGTT against Pmch, inactive: -0.455.
In the case of GGGAUCAGAACAAGUAUAATT against Kns2, the z-score was inactive: -2.38.
Turning to CCAAAUGACUAGCACCAGUTT against Arl12, the z-score is inactive: -1.19.
The same measure for GGAAAAAGUGACAAGCAAGTT against Svil: inactive: 0.21; for GGCGAACUGAAGGAUAUGGTT against Anapc5: inactive: 0.0137.
For the sequence GAGCAAUGAGCAGAGAUUCTT against H2-D4, the z-score is inactive: -0.409.
Take GGUUCGAGUCUCUUACUCUTT against Pou4f3: the z-score was inactive: 0.0715.
The same measure for GGCACCAAACUCAGCCUUATT against Csk: inactive: -1.25; for GCAAACAUGUCAAGUCCGATT against Actl6b: inactive: 0.478.
For GGGCCAGAAUCCAAAUGCUTT against Tox, the z-score was inactive: 0.536.
For CCCUUUUGUUUAGCUGAUCTT against Glrp1, the z-score was inactive: 0.652.
For the sequence “GCCUUCUGAUUCAUUUUCUTT against 1500034E06Rik”, the z-score was inactive: -0.0388.
On to GGAAAUCAAGCUUUAGGGCTT against Myct1, for which the z-score was inactive: -0.182.
As to GGAAGAAGAAAGGCAGCUGTT against Parn, the z-score is inactive: 2.06.
The result for GGUGGAGCCAUGUGCAUUGTT against Olfr1246 reads inactive: -2.14.
Take GGAUAUGAAGGAAUAUGUGTT against Leng8: the z-score is inactive: -1.48.
In the case of GGAAGACAGAAAGUCAUUUTT against Chd1l, the z-score was inactive: -0.169.
Turning to “GGACUUGGUGCACUGAAGUTT against 9430095K15Rik”, the z-score was inactive: -1.11.
GGAAGAAGAAGUCUUACACTT against Rps27a: the z-score was inactive: -2.75.
The result for CGAUUACUACAUAAUUGCCTT against Efnb3 reads inactive: -1.03.
In the case of GCUUGAAUCUCCCAAGAUATT against Jmjd2c, the z-score was inactive: 1.37.
For the sequence CCACCUACCCUUUGAGUGGTT against Slc7a12, the z-score was inactive: 0.208.
In the case of GGUUUGAGCUCUUUAUUUUTT against Cyp2j13, the z-score is inactive: 0.00818.
The same measure for GCAGUAAUGUCCAGGGACATT against Akt2: inactive: 1.17; for CCCAUUUGGAAUUAUUCCUTT against Arf4: inactive: 0.86; for GGGAAGCUGAUUAUACAUUTT against Serpinf1: inactive: 1.67.
As to GACCUAAGCUCAUUGACCUTT against V1rc5, the z-score was inactive: 0.697.
The result for GCUUCUGUAAAUCCCAUAUTT against Olfr26 reads inactive: 3.13; that for GGUACAUUAUCGGAUACAUTT against BC043301, inactive: -0.542.
The same measure for GGAUAGUUGAAGUCCUAAATT against Il9: inactive: 1.38.
“GGAUUCGGACAAAACUACUTT against 2810013M15Rik”: the z-score was inactive: -1.4.
For the sequence GGAACUGCUGUACAGGUACTT against Mest, the z-score is inactive: -0.0275.
Regarding GGCAGCUUCUGUUCUUUUATT against Ube3c, the z-score was inactive: 0.466.
As for GGACCUGCCAAAAGUUGUGTT against Uqcrc1, the z-score was inactive: -0.603.
Consider CCUGAUCCCAUGUAAAACATT against Sspn, for which the z-score is inactive: -0.859.
Regarding GGCUAUGACAAUGCCUACATT against Maged2, the z-score is inactive: -0.707.
The same measure for GGGUUCAAGUCAGUGAUGUTT against Dnajb8: inactive: 0.105; for CGGAGGGAAAUGACAUUGCTT against Acr: inactive: 0.505.
For the sequence GCUGUUCUGCCUCUAAGACTT against Zfp597, the z-score is inactive: -0.178.
As for GUGAAUGGUCAGAAGUUUGTT against Elk4, the z-score is inactive: -0.01.
As for GGCUAUCUGCUUAUGCUGGTT against Ptch2, the z-score was inactive: -0.153.
In the case of GGAAGUCUAUGUAGGUUCATT against Kif22, the z-score was inactive: -1.58.
The result for GGUAUUAUCUGCAUGGGCATT against Mkrn3 reads inactive: -0.616.
For the sequence GGUUGUUGUUUCAGCAUCCTT against Mrpl18, the z-score was inactive: 0.942.
On to GGCCUCUAUCUUCCAACAATT against Pols, for which the z-score was inactive: -0.878.
In the case of GGUCGUUGUGUCUGAAUACTT against BC050188, the z-score was inactive: -2.81.
GGAAAUUGCCAAACAUUUUTT against BC030417: the z-score was inactive: -0.933.
Take CGAGCAUGCAUUCAAAGGATT against Lrrc3b: the z-score was inactive: -0.0876.
As to GGUCAUCUUAUUGAACUUCTT against Edg1, the z-score is inactive: 0.117.
The result for “GCCCAGAGAAUGACCUAUATT against 9130019O22Rik” reads inactive: -0.497.
As to “CCGACCUCAACUUCAACGATT against 4933428G20Rik”, the z-score is inactive: -0.0687.
CGCAUGCACUGAAAUCUACTT against Pop7: the z-score was inactive: -1.03.
As for GGCCGCCAUUUUGGCAAGATT against Fbxo27, the z-score was inactive: 1.32.
Turning to GGUGGACACACACAUCCACTT against Ampd2, the z-score is inactive: 0.517.
In the case of CGAGAGGUUUGUCCAUAGATT against Tac4, the z-score is inactive: 0.339.
In the case of CCUUAGCCCUCAUUCACAGTT against BC046404, the z-score is inactive: -1.35.
In the case of “GGGAAUGGAGGUCCAGAUUTT against 1700027D21Rik”, the z-score is inactive: -3.07.
As for GCUAUGGAUCAAAGAAUUATT against Senp1, the z-score is inactive: 0.165.
Take GGAUUCCUGCUUAUCAAAUTT against Nut: the z-score is inactive: -0.02.
With “GGAGUCAGUGAGGUACAUUTT against C230096C10Rik”, the z-score was inactive: -2.27.
The result for GGACAAACUGCCCUUACAGTT against BC048671 reads inactive: -1.05; that for “GGCCAACACUCAGAAAAGGTT against 4933409D10Rik”, inactive: -0.601; that for GGAAGUGCAAGAAAGAUAUTT against Ltbp3, inactive: -0.545.
As to CCAGUGCGAUUCAAGAUUATT against Glrx1, the z-score is inactive: 1.33.
CGGUCGUGAGUUUGUAUAUTT against BC027061: the z-score is inactive: 0.503.
Take GGACAAUGUUUCCUCACUCTT against Xcl1: the z-score was inactive: -1.05.
Turning to GGUUUAUUGUAAUGGCUAATT against Olfr1271, the z-score is inactive: 0.734.
For the sequence GCCAGUGGAAAAUUGACGUTT against BC053917, the z-score is inactive: -0.722.
Regarding AAUCAGUUUGAAAUGGUAGTT against Olfr255, the z-score is inactive: -0.616.
For GGAAGUUAUUGGAGCUUUGTT against Olfr706, the z-score is inactive: -1.18.
As to GCGACUGCGUUCGUUAUUUTT against Matn1, the z-score is inactive: 1.01.
The same measure for CGCGCUGUGACUUUCAAAATT against Ifitm1: inactive: -0.223; for GGCUGUGACUAUGUUGUGCTT against Top3b: inactive: 0.826; for GCUGCAUCCGUAGAUGUUGTT against Fthfd: inactive: -0.992.
Consider “GCAUAAAACAGGGAACUUUTT against 4831428F09”, for which the z-score is inactive: -1.37.
Turning to “GCUGUAUCCUGUAGUGAGUTT against 4930422J18Rik”, the z-score is inactive: -0.132.
The result for GGCUAAUGUGCUCUCUCAUTT against Olfr644 reads inactive: 1.28; that for GGAACUUCGUCAGUACAUUTT against Setdb1, inactive: 0.892; that for GGUCCACUUGCCAUCUAUUTT against Zfp54, inactive: 0.817.
As to GGUAAUAGGAGAUACUGUGTT against Gzme, the z-score was inactive: 0.464.
Consider “GCCUUUCAACUCACCAGCCTT against A630056B21Rik”, for which the z-score was inactive: -0.185.
Consider GGGCAAAAAUCCUCUAAAUTT against Gas7, for which the z-score was inactive: -0.373.
Take GGUUUGAGUUUAGAGUUCATT against Axl: the z-score was inactive: -0.701.
Regarding GGCUUUGGCGAUAAGACAUTT against Glud1, the z-score is inactive: -1.14.
The result for “GGGAUGUGGAACGUAUGGUTT against 1110038M16Rik” reads inactive: -0.0762.
The same measure for “GGGAGUGGUUGUCUAUUCCTT against 1110017C15Rik”: inactive: -1.13.
